The target of the experiment is Human FGF19 (human) (UniProt O95750). The experiment is described as follows: Biacore of IgG. Background: In SPR one partner is held on a chip, and binding of the other changes the refractive index at the surface.

By UniProt entry, the sequences of proteins in these tests, tags left out. Residues count along the entry.
UniProt O95750, residues 25-216: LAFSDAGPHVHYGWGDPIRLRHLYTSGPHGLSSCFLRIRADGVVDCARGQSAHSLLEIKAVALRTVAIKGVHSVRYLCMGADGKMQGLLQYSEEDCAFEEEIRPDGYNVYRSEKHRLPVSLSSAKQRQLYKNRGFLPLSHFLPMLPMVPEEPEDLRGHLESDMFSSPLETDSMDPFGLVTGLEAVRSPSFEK

Data on 1 molecule can be found in US20110076262A1.

These are yes or no findings as the source states them, for the method shown. Some results given as binding are weak or reduced against the parent protein; the word gives no strength.

B1: humanized 1A6 clone with S34G (1 change from 1A6-graft) (antibody, V domains shown)
VH: EVQLVESGGGLVQPGGSLRLSCAASGFSLTTYGVHWVRQAPGKGLEWVGVIWPGGGTDYNAAFISRFTISRDNSKNTLYLQMNSLRAEDTAVYYCVRKEYANLYAMDYWGQGTLVTVSS
VL: DIQMTQSPSSLSASVGDRVTITCKASQDINSFLGWYQQKPGKAPKLLIYRANRLVDGVPSRFSGSGSGTDFTLTISSLQPEDFATYYCLQYDEFPLTFGQGTKVEIKR
As to B1, the binding entry was “binds”.
